Test results reported in patent US20180155698.

Biological target: T1, DSA polymerase K276C,Q451C (Bacillus stearothermophilus) (UniProt Q04957)
T1 sequence: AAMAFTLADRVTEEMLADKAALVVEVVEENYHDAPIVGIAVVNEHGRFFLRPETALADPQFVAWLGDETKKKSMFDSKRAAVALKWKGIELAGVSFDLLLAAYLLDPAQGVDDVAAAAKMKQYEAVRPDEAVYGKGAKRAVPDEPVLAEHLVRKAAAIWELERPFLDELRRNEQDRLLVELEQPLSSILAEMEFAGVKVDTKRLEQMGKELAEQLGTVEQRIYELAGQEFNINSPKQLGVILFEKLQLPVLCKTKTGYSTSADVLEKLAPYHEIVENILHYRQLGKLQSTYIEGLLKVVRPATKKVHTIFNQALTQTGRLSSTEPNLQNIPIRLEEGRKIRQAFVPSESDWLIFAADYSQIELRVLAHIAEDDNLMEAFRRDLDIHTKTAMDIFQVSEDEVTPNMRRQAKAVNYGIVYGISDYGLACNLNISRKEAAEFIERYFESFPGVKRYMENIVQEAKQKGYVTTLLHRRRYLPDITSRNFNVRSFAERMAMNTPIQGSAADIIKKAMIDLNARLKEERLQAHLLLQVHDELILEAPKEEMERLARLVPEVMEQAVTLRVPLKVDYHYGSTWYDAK
Experiment: binding assay
Conditions: Cy-5 polymerase fluorescence in flow cell; 20 nM, 50 mM KCl, Sr2+, 47 C; purified recombinant protein

CCGATTCGTC (double strand) [RCA primed template yielding CCGATTCGTC]
binding result: binds

For at least one entry, the source does not settle the construct or the ends of the probe. Protein sequences can lack the tags named with them.
